No constants are given. Whether binding was seen depends on the method and setting. Some binding calls cover weakened binding; strength is not graded here.

For assay [1], the target named is T1, … (SEQ ID NO: 2) peptide.
T1 sequence (peptide, cyclized (synthetic peptide, cyclized and purified by HPLC)): CPGPEGAGC
In words: T7 phage clone binding to microtiter wells coated with … peptide; pfu recovered.

Assay [2] addresses T1, … (SEQ ID NO: 2) peptide. The assay can be described thus: phage (10^8 pfu) binding to microtiter wells coated with … peptide.

As for FMARASGCPLVLRCACDCHTGNVLGGQDCNCS [clone #47, phage displaying an aminopeptidase P cDNA fragment], the binding result in the assay with … (SEQ ID NO: 2) peptide [1] and in the assay with … (SEQ ID NO: 2) peptide [2] was “binds” throughout.

The values above are taken from patent US7666391B2, “Breast homing peptides and methods of identifying same using aminopeptidase P” (Burnham Institute for Medical Research, priority 2001, dated 2010).
